± gives the standard deviation of the averaged measurements. Values are relative to the signal before dosing, not to a vehicle control; the signal also falls without drug.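 Fibroblast labels denote human fibroblasts, mainly primary ones from uterus (C12385, HUF), lung (H6013), bone (Hs27A), adrenal (HADF) and skin (WS1), plus mammary HMF and breast cancer-associated Hs343T. Cancer cells are basal-like or mesenchymal-like triple-negative breast cancer lines. A hit is a response shift exceeding 3x replicate standard deviation. The tissue of the other fibroblasts is not given here.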
Test system: BT20
Test: relative JC-1 red fluorescence (viability) vs pre-drug, coculture with fibroblast (fraction); higher = more viable cancer cells
Method: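 JC-1 labelled TNBC cells cocultured 1:1 (1,500 cells each) with CellTrace Violet stained primary or stromal fibroblasts in 384-well plates in FluoroBrite medium, treated with one of 42 anticancer drugs at 0.1, 1, 10 or 100 uM. JC-1 red fluorescence (mitochondrial integrity in cancer cells only) was read by plate reader every 8 h for 72 h. Values are normalised to each well's pre-drug value. The stock of one drug was tenfold lower, so its dose labels may be too high.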

O=NN(CCCl)C(=O)NC1CCCCC1 [Lomustine]
relative JC-1 red fluorescence
Settings	8 h	16 h	24 h	32 h	40 h	48 h	56 h	64 h	72 h
0.1 µM, coculture fibroblast: C12385	0.892 ± 0.021	0.844 ± 0.03	0.836 ± 0.05	0.803 ± 0.084	0.766 ± 0.11	0.751 ± 0.12	0.747 ± 0.13	0.758 ± 0.14	0.75 ± 0.14
0.1 µM, coculture fibroblast: H6013	0.914 ± 0.0029	0.889 ± 0.016	0.871 ± 0.015	0.8239 ± 0.0037	0.8005 ± 0.0034	0.781 ± 0.015	0.791 ± 0.022	0.777 ± 0.034	0.764 ± 0.031
0.1 µM, coculture fibroblast: H6019	0.8629 ± 0.0022	0.7975 ± 0.0021	0.7904 ± 0.0016	0.73 ± 0.0095	0.68 ± 0.017	0.6568 ± 0.0019	0.616 ± 0.015	0.5921 ± 0.0037	0.572 ± 0.013
0.1 µM, coculture fibroblast: H6076	0.858 ± 0.028	0.953 ± 0.022	0.894 ± 0.054	0.87 ± 0.059	0.854 ± 0.062	0.84 ± 0.056	0.839 ± 0.059	0.838 ± 0.048	0.835 ± 0.049
0.1 µM, coculture fibroblast: H6231	0.833 ± 0.1	0.902 ± 0.02	0.8264 ± 0.0074	0.766 ± 0.01	0.722 ± 0.019	0.68 ± 0.0078	0.653 ± 0.015	0.633 ± 0.023	0.613 ± 0.023
0.1 µM, coculture fibroblast: HADF	0.935 ± 0.011	0.865 ± 0.021	0.81818 ± 0.00018	0.77649 ± 2.8e-05	0.7517 ± 0.0013	0.7214 ± 0.0057	0.718 ± 0.0076	0.703 ± 0.024	0.681 ± 0.028
0.1 µM, coculture fibroblast: HCFa	0.93 ± 0.029	0.878 ± 0.017	0.844 ± 0.0099	0.78 ± 0.021	0.733 ± 0.017	0.694 ± 0.016	0.668 ± 0.032	0.644 ± 0.034	0.615 ± 0.036
0.1 µM, coculture fibroblast: HCPF	0.893 ± 0.1	0.89 ± 0.033	0.8069 ± 0.0064	0.762 ± 0.011	0.733 ± 0.023	0.704 ± 0.025	0.673 ± 0.047	0.669 ± 0.051	0.639 ± 0.05
0.1 µM, coculture fibroblast: HHSteC	0.919 ± 0.034	0.892 ± 0.041	0.878 ± 0.063	0.82 ± 0.078	0.789 ± 0.098	0.754 ± 0.1	0.73 ± 0.12	0.713 ± 0.12	0.692 ± 0.13
0.1 µM, coculture fibroblast: HMF	0.833 ± 0.19	0.925 ± 0.079	0.836 ± 0.067	0.787 ± 0.076	0.742 ± 0.053	0.701 ± 0.042	0.674 ± 0.042	0.639 ± 0.013	0.622 ± 0.024
0.1 µM, coculture fibroblast: HPFa	0.9223 ± 0.0072	0.9162 ± 0.0022	0.9435 ± 0.0036	0.871 ± 0.012	0.853 ± 0.017	0.814 ± 0.012	0.795 ± 0.0092	0.7672 ± 0.0066	0.707 ± 0.016
0.1 µM, coculture fibroblast: HUF	0.897 ± 0.043	0.82 ± 0.046	0.791 ± 0.043	0.706 ± 0.047	0.663 ± 0.043	0.623 ± 0.041	0.602 ± 0.036	0.599 ± 0.031	0.585 ± 0.029
0.1 µM, coculture fibroblast: Hs5	0.88 ± 0.057	0.926 ± 0.018	0.8503 ± 0.0014	0.8064 ± 0.00075	0.753 ± 0.018	0.717 ± 0.01	0.691 ± 0.0076	0.6624 ± 0.0023	0.6366 ± 0.0042
0.1 µM, coculture fibroblast: Hs27A	0.904 ± 0.09	0.878 ± 0.15	0.872 ± 0.17	0.894 ± 0.097	0.84 ± 0.15	0.846 ± 0.14	0.829 ± 0.18	0.822 ± 0.16	0.94 ± 0.072
0.1 µM, coculture fibroblast: Hs343T	0.9925 ± 0.0038	0.919 ± 0.033	0.836 ± 0.049	0.781 ± 0.058	0.743 ± 0.042	0.701 ± 0.029	0.667 ± 0.012	0.657 ± 0.015	0.628 ± 0.013
0.1 µM, coculture fibroblast: WS1	0.863 ± 0.027	0.779 ± 0.041	0.72 ± 0.042	0.644 ± 0.041	0.58 ± 0.048	0.555 ± 0.059	0.527 ± 0.06	0.501 ± 0.06	0.489 ± 0.068
1 µM, coculture fibroblast: C12385	0.897 ± 0.014	0.79 ± 0.012	0.726 ± 0.022	0.654 ± 0.022	0.601 ± 0.017	0.568 ± 0.016	0.539 ± 0.017	0.517 ± 0.02	0.502 ± 0.02
1 µM, coculture fibroblast: H6013	0.988 ± 0.017	0.891 ± 0.036	0.854 ± 0.03	0.821 ± 0.03	0.764 ± 0.011	0.733 ± 0.017	0.712 ± 0.01	0.679 ± 0.0052	0.654 ± 0.0076
1 µM, coculture fibroblast: H6019	0.8694 ± 0.0017	0.805 ± 0.028	0.799 ± 0.086	0.744 ± 0.085	0.702 ± 0.1	0.691 ± 0.1	0.656 ± 0.1	0.628 ± 0.099	0.609 ± 0.1
1 µM, coculture fibroblast: H6076	0.86 ± 0.2	0.903 ± 0.038	0.801 ± 0.018	0.769 ± 0.028	0.728 ± 0.026	0.707 ± 0.0084	0.6886 ± 0.0058	0.6824 ± 0.0048	0.663 ± 0.013
1 µM, coculture fibroblast: H6231	0.861 ± 0.11	0.9289 ± 0.0022	0.8119 ± 0.0067	0.7385 ± 0.0048	0.682 ± 0.012	0.637 ± 0.019	0.604 ± 0.02	0.581 ± 0.025	0.554 ± 0.013
1 µM, coculture fibroblast: HADF	0.801 ± 0.13	0.954 ± 0.029	0.911 ± 0.097	0.898 ± 0.13	0.867 ± 0.16	0.839 ± 0.18	0.816 ± 0.19	0.793 ± 0.21	0.772 ± 0.23
1 µM, coculture fibroblast: HCFa	0.935 ± 0.035	0.855 ± 0.037	0.817 ± 0.042	0.762 ± 0.041	0.721 ± 0.06	0.681 ± 0.059	0.641 ± 0.068	0.617 ± 0.067	0.578 ± 0.063
1 µM, coculture fibroblast: HCPF	0.878 ± 0.15	0.906 ± 0.013	0.809 ± 0.03	0.762 ± 0.0086	0.7255 ± 0.0054	0.685 ± 0.013	0.6375 ± 0.0048	0.6305 ± 0.004	0.5942 ± 0.0024
1 µM, coculture fibroblast: HHSteC	0.92 ± 0.018	0.853 ± 0.035	0.86 ± 0.015	0.786 ± 0.019	0.744 ± 0.018	0.707 ± 0.02	0.683 ± 0.016	0.667 ± 0.018	0.624 ± 0.014
1 µM, coculture fibroblast: HMF	0.888 ± 0.12	0.917 ± 0.027	0.816 ± 0.067	0.766 ± 0.062	0.715 ± 0.049	0.668 ± 0.045	0.626 ± 0.031	0.591 ± 0.015	0.569 ± 0.0067
1 µM, coculture fibroblast: HPFa	0.9277 ± 0.0069	0.837 ± 0.025	0.837 ± 0.048	0.754 ± 0.046	0.713 ± 0.052	0.653 ± 0.059	0.62 ± 0.067	0.583 ± 0.074	0.532 ± 0.077
1 µM, coculture fibroblast: HUF	0.892 ± 0.013	0.7892 ± 0.0031	0.739 ± 0.0079	0.654 ± 0.013	0.6 ± 0.013	0.56 ± 0.013	0.536 ± 0.016	0.513 ± 0.021	0.5 ± 0.026
1 µM, coculture fibroblast: Hs5	0.745 ± 0.051	0.9235 ± 0.0037	0.835 ± 0.014	0.776 ± 0.018	0.728 ± 0.039	0.681 ± 0.038	0.633 ± 0.062	0.589 ± 0.058	0.55 ± 0.074
1 µM, coculture fibroblast: Hs27A	0.833 ± 0.12	0.855 ± 0.047	0.916 ± 0.051	0.915 ± 0.048	0.874 ± 0.063	0.848 ± 0.067	0.823 ± 0.076	0.796 ± 0.083	0.744 ± 0.093
1 µM, coculture fibroblast: Hs343T	0.9747 ± 0.0076	0.853 ± 0.039	0.752 ± 0.012	0.701 ± 0.0065	0.654 ± 0.011	0.618 ± 0.018	0.577 ± 0.017	0.56 ± 0.011	0.532 ± 0.018
1 µM, coculture fibroblast: WS1	0.8667 ± 0.007	0.769 ± 0.011	0.7281 ± 0.00084	0.667 ± 0.0084	0.616 ± 0.0063	0.589 ± 0.0086	0.567 ± 0.02	0.552 ± 0.025	0.547 ± 0.038

Reference: the supplement of paper PMC6078165
